Results published in paper PMC3605359, “Expression, purification and biochemical characterization of Schizosaccharomyces pombe Mcm4, 6 and 7” (BMC Biochemistry, 2013).
No constants are given. Whether binding was seen depends on the method and setting. Some binding calls cover weakened binding; strength is not graded here. Each block holds one binder with its values, some of them ahead of it.

The chains behind the UniProt entries cited, without tags or fusion partners.
UniProt P49731: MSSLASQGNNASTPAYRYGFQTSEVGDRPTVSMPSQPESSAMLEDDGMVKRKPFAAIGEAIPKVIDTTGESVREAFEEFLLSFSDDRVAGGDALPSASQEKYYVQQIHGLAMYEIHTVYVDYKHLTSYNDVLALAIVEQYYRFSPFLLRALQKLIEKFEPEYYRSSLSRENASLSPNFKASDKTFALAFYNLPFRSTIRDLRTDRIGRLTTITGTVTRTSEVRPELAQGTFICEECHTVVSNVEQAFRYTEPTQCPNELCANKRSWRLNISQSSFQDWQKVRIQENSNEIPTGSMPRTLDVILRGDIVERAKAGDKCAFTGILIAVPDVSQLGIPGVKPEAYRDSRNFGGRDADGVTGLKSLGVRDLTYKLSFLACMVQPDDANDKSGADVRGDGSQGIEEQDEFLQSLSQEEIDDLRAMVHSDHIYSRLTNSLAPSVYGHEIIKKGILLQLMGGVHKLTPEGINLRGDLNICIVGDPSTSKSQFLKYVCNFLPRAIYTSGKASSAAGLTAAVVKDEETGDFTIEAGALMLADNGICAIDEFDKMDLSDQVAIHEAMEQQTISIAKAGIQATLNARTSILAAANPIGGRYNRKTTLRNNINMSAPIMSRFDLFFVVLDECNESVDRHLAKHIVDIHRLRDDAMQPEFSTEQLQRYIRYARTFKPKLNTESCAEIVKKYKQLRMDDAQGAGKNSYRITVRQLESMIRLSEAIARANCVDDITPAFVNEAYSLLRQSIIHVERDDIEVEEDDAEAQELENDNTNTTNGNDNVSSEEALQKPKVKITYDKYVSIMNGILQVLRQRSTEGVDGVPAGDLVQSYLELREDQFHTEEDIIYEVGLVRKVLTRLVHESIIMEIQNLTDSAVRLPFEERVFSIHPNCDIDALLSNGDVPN

Legend:
[1] = biological target: Mcm6 of the Mcm4/6/7 hexamer expressed and purified from insect cells (UniProt P49731); test: SEC; gel filtration profile of Mcm4/6/7 hexamers expressed and purified from insect cells; both purified
[2] = biological target: T1, Mcm7 of the Mcm4/6/7 hexamer expressed and purified from insect cells (UniProt O75001); test: as above
T1 sequence: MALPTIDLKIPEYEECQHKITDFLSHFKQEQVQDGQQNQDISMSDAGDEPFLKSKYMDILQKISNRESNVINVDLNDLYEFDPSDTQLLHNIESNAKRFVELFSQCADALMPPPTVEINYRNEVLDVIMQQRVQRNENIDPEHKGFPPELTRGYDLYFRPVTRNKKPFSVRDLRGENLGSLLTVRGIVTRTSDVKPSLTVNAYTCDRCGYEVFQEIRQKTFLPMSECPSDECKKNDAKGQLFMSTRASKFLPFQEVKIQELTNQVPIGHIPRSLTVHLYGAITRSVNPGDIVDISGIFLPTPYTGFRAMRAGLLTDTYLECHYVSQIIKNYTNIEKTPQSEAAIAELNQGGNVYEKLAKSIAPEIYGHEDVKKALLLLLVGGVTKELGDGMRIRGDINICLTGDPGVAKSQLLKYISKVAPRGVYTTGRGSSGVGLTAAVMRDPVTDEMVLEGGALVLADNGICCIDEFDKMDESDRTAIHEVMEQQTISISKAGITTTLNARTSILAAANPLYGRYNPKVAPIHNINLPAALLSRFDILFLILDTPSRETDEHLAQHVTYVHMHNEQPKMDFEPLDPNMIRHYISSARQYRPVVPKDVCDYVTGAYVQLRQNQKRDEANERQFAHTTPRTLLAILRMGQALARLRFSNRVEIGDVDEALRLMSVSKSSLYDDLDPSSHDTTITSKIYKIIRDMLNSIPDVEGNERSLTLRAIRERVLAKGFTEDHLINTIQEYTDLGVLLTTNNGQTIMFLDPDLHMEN

- binding [1]: binds
B1: Mcm7 of the Mcm4/6/7 hexamer expressed and purified from insect cells (protein, UniProt O75001 1-760)
chain: T1 sequence

- binding [2]: binds
- binding [1]: binds
B2: Mcm4 of the Mcm4/6/7 hexamer expressed and purified from insect cells (protein, UniProt P29458 1-911)
chain: MSSSQQSGRANELRTPGRANSSSREAVDSSPLFFPASSPGSTRLTTPRTTARTPLASSPLLFESSSPGPNIPQSSRSHLLSQRNDLFLDSSSQRTPRSTRRGDIHSSVQMSTPSRRREVDPQRPGVSTPSSLLFSGSDALTFSQAHPSSEVADDTVRVIWGTNVSIQESIASFRGFLRGFKKKYRPEYRNELMPPPDAEQLVYIEALRNMRIMGLEILNLDVQDLKHYPPTKKLYHQLYSYPQEIIPIMDQTIKDVMLDLLGTNPPEDVLNDIELKIYKIRPFNLEKCINMRDLNPGDIDKLISIKGLVLRCTPVIPDMKQAFFRCSVCGHCVTVEIDRGRIAEPIKCPREVCGATNAMQLIHNRSEFADKQVIKLQETPDVVPDGQTPHSVSLCVYDELVDSARAGDRIEVTGIFRCVPVRLNPRMRTVKSLFKTYVDVVHIKKQDKRRLGTDPSTLESDIAEDAALQIDEVRKISDEEVEKIQQVSKRDDIYDILSRSLAPSIYEMDDVKKGLLLQLFGGTNKSFHKGASPRYRGDINILMCGDPSTSKSQILKYVHKIAPRGVYTSGKGSSAVGLTAYITRDQDTKQLVLESGALVLSDGGICCIDEFDKMSDATRSILHEVMEQQTVTVAKAGIITTLNARTSILASANPIGSKYNPDLPVTKNIDLPPTLLSRFDLVYLILDRVDETLDRKLANHIVSMYMEDTPEHATDMEVFSVEFLTSYITYARNNINPVISEEAAKELVNAYVGMRKLGEDVRASEKRITATTRQLESMIRLSEAHAKMHLRNVVEVGDVLEAARLIKTAIKDYATDPATGKISLDLIYVNERETLVPEDMVKELANLISNLTVGGKTMLVSQLLTRFREQSSTRLDASDFEACLGALERRGRIKVITSAGHRIVRSIAQTD
